These are yes or no findings as the source states them, for the method shown. Binding seen in cells or lysates may run through a third protein. A result given as binding can be weak or reduced; the word gives no strength.
Molecular target: T1, Caspr (native, mouse brain) (mouse) (UniProt O54991)
T1 sequence (looked up): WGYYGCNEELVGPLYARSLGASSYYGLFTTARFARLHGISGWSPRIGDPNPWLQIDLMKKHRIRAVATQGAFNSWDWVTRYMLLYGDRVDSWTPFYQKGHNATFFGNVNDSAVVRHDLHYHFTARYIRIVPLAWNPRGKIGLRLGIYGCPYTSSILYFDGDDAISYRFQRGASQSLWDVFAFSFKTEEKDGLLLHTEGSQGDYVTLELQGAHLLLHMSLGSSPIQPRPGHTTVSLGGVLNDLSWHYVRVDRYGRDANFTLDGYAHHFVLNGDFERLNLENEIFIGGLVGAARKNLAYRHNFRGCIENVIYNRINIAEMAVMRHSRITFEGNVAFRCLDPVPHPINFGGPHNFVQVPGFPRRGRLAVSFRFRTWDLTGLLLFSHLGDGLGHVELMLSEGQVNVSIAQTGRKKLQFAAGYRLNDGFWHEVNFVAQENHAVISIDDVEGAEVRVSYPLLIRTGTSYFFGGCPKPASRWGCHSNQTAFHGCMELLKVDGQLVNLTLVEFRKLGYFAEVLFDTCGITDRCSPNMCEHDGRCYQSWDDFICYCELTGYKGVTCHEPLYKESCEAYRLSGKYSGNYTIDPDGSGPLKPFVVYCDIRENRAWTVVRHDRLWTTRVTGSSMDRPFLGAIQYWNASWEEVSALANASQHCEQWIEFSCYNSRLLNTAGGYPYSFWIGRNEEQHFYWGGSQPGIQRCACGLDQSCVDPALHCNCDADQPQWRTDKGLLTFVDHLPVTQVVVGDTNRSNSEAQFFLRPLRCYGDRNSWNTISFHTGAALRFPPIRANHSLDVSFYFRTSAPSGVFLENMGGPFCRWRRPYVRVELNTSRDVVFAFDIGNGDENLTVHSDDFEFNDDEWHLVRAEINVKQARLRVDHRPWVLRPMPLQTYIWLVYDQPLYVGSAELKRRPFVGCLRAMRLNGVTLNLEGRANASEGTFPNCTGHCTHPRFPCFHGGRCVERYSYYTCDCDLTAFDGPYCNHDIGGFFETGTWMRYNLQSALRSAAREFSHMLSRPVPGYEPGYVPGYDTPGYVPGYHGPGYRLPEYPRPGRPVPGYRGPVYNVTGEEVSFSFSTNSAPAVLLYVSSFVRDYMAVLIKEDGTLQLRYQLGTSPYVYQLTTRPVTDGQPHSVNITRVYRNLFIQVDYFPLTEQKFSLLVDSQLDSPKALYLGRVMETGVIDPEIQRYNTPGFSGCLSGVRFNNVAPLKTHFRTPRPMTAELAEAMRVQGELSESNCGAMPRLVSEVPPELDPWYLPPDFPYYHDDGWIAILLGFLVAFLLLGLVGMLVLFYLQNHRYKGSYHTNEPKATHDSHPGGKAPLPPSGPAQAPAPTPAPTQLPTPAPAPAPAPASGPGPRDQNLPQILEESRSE
Assay: GST pull-down from adult mouse brain membrane extracts

Q: Which binding does the source give for GST-Nogo-66 here?
A: The binding was “binds”.
